Test results as given in publication PMC3622178.
No constants are given. Whether binding was seen depends on the method and setting. Some results given as binding are weak or reduced against the parent protein; the word gives no strength.

The chains behind the UniProt entries cited, without tags or fusion partners.
UniProt Q9WTL8: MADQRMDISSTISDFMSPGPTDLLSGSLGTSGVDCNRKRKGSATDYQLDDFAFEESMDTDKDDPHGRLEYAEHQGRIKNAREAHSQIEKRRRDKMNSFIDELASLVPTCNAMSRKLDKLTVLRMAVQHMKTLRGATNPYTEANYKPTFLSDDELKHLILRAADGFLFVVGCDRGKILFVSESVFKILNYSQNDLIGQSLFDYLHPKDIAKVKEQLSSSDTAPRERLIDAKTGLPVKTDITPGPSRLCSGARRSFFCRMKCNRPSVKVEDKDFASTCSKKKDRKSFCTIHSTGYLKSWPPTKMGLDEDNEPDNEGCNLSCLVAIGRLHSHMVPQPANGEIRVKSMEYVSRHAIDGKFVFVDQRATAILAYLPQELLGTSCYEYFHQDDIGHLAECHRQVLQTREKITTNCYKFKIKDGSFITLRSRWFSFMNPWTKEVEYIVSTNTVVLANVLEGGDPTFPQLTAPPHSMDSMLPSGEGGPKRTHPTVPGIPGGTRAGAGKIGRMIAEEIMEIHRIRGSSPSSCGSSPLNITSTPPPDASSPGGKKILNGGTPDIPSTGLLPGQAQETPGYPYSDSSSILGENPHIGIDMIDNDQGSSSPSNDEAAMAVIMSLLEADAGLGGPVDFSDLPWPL

Biological target: BMAL1 (mouse (endogenous in C57BL/6J liver)) (UniProt Q9WTL8)
Test: native gel or EMSA; antibody supershift of protein complexes on 32P-labelled tandem E-box probes (Dbp EP, Dbp EI2, Per2 E', Per1 EP1); 15 ug liver nuclear protein (ZT8), 25 mM HEPES-KOH pH 7.6, 150 mM NaCl, 0.1 mM EDTA, 1 mM DTT; 16°C 30 min; anti-CLOCK or anti-BMAL1 added before the probe

binding: binds
B1: CLOCK (protein, UniProt O08785 1-855)
chain: MVFTVSCSKMSSIVDRDDSSIFDGLVEEDDKDKAKRVSRNKSEKKRRDQFNVLIKELGSMLPGNARKMDKSTVLQKSIDFLRKHKETTAQSDASEIRQDWKPTFLSNEEFTQLMLEALDGFFLAIMTDGSIIYVSESVTSLLEHLPSDLVDQSIFNFIPEGEHSEVYKILSTHLLESDSLTPEYLKSKNQLEFCCHMLRGTIDPKEPSTYEYVRFIGNFKSLTSVSTSTHNGFEGTIQRTHRPSYEDRVCFVATVRLATPQFIKEMCTVEEPNEEFTSRHSLEWKFLFLDHRAPPIIGYLPFEVLGTSGYDYYHVDDLENLAKCHEHLMQYGKGKSCYYRFLTKGQQWIWLQTHYYITYHQWNSRPEFIVCTHTVVSYAEVRAERRRELGIEESLPETAADKSQDSGSDNRINTVSLKEALERFDHSPTPSASSRSSRKSSHTAVSDPSSTPTKIPTDTSTPPRQHLPAHEKMTQRRSSFSSQSINSQSVGPSLTQPAMSQAANLPIPQGMSQFQFSAQLGAMQHLKDQLEQRTRMIEANIHRQQEELRKIQEQLQMVHGQGLQMFLQQSNPGLNFGSVQLSSGNSNIQQLTPVNMQGQVVPANQVQSGHISTGQHMIQQQTLQSTSTQQSQQSVMSGHSQQTSLPSQTPSTLTAPLYNTMVISQPAAGSMVQIPSSMPQNSTQSATVTTFTQDRQIRFSQGQQLVTKLVTAPVACGAVMVPSTMLMGQVVTAYPTFATQQQQAQTLSVTQQQQQQQQQPPQQQQQQQQSSQEQQLPSVQQPAQAQLGQPPQQFLQTSRLLHGNPSTQLILSAAFPLQQSTFPPSHHQQHQPQQQQQLPRHRTDSLTDPSKVQPQ
